{
  "sequences": {"note": "By UniProt entry, the sequences of proteins in these tests, tags left out. Where a name states a change or a piece, a line headed by the entry shows the natural chain unless it says otherwise.", "UniProt Q9UNA4": "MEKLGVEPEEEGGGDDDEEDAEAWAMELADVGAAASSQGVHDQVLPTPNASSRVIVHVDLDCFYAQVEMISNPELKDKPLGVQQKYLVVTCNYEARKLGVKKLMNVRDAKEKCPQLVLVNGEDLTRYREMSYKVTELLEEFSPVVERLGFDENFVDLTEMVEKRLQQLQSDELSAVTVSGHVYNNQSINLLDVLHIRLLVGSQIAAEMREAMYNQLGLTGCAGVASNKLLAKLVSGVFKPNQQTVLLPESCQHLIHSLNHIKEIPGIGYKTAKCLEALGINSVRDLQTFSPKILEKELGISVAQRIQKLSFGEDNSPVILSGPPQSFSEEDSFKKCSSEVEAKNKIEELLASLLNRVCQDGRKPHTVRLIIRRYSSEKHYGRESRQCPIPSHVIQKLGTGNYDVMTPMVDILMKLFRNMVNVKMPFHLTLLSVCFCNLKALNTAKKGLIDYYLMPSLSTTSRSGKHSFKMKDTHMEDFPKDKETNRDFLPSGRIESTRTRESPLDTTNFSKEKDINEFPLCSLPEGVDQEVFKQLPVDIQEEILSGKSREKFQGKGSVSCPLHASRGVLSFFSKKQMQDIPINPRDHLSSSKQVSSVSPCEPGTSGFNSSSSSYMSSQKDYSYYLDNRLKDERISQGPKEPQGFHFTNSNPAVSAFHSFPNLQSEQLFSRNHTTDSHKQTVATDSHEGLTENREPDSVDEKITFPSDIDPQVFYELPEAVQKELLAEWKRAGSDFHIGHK"},
  "source": "PubChem BioAssay AID588590",
  "about": "(National Center for Advancing Translational Sciences (NCATS), 2011)",
  "note": "In all, about 390,000 compounds went through this assay and about 4,000 (1%) were called active. The shares of active, inactive and inconclusive entries below differ from those in the screen. Calls follow the shape of the dose curve; as a rule, active = well fitted inhibition curve with a large enough effect; inconclusive = small, poorly fitted or top-dose-only effect, or another doubt; inactive = no such curve, though single readings can be large or run the other way. Potencies of inconclusive entries are doubtful fits and often do not repeat. Potency is read from the fitted curve at half-maximal effect.",
  "data": [
    {"molecular_target": "DNA polymerase iota (Homo sapiens) (UniProt Q9UNA4)", "assay": "qHTS for Inhibitors of Polymerase Iota", "conditions": "Pol iota fluorescent replication assay, 10 min; series mostly up to 115 µM", "how_it_was_run": "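Fluorescent replication assay read twice, at 0 min and 10 min after adding 50 nM (final) substrate. Enzyme (10 nM) and compounds were first incubated 15 min at room temperature; enzyme-free buffer wells were negative controls.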", "values": [
      {"smiles": "CCOC(=O)c1ccc(NC(=O)c2cc3c(=O)n(C)c4ccccc4c3n2C)cc1", "Potency": "inconclusive: 89.1 µM [inhibitor, single point]"},
      {"smiles": "CC(C)CCN1C(=O)c2ccc(C(=O)Nc3ccccc3C(=O)O)cc2C1=O", "Potency": "inconclusive: 22.4 µM [inhibitor, single point]"},
      {"smiles": "CC(C)CCC1(C)NC(=O)N(CC(=O)c2ccc[nH]2)C1=O", "note": "(centres undefined)", "Potency": "inconclusive: 22.4 µM [inhibitor, full curve]"},
      {"smiles": "O=C(N=Nc1c(O)[nH]c2ccc([N+](=O)[O-])cc12)c1ccccc1[N+](=O)[O-]", "Potency": "inactive"},
      {"smiles": "COc1cccc(NC(=O)CCc2nc(-c3cc(OC)c(OC)c(OC)c3)no2)c1", "Potency": "inactive"},
      {"smiles": "O=C(COc1ccc2ccccc2c1)NNC(=O)Nc1ccccc1F", "Potency": "active: 79.4 µM"},
      {"smiles": "COC(=O)C1=C(C)NC(C)=C(C(=O)O[C@@H]2CCCN(Cc3ccccc3)C2)[C@@H]1c1cccc([N+](=O)[O-])c1", "Potency": "inconclusive: 79.4 µM [inhibitor, partial curve]"},
      {"smiles": "Cc1ccc(-c2cc(=O)c3cc(F)ccc3[nH]2)cc1", "Potency": "inconclusive: 50.1 µM [inhibitor, partial curve]"},
      {"smiles": "Cc1oc2c(O)c(O)ccc2c(=O)c1-c1ccccc1", "Potency": "inconclusive: 63.1 µM [inhibitor, partial curve, poor fit]"},
      {"smiles": "CCN(CC)c1ccc(C(=O)NNC(=O)c2cccn2C)cc1", "Potency": "inconclusive: 15.8 µM [inhibitor, full curve]"},
      {"smiles": "CCN(CC)S(=O)(=O)c1cc(NC(=O)Cn2ncc(Cl)c(Cl)c2=O)ccc1C", "Potency": "active: 25.1 µM"},
      {"smiles": "COc1ccc(NC(=O)CCCn2cnc3ccccc3c2=O)c(OC)c1", "Potency": "inactive"},
      {"smiles": "COc1ccc(-c2ccc(S(=O)(=O)n3nc(OC(=O)c4cccs4)cc3N)cc2)cc1", "Potency": "inconclusive: 44.7 µM [inhibitor, partial curve]"},
      {"smiles": "CSc1ccc(S(=O)(=O)NCc2ccc(C)cc2)cc1", "Potency": "inconclusive: 8.91 µM [inhibitor, partial curve, poor fit]"},
      {"smiles": "COc1ccccc1CNC(=O)Cn1c(-c2cccs2)cc2cc(F)ccc21", "Potency": "inactive"},
      {"smiles": "O=C(N/N=C/c1cccc(OC2CSC2)c1)c1ccccc1O", "Potency": "inconclusive: 126 µM [inhibitor, partial curve, poor fit]"},
      {"smiles": "CCN(c1ccccc1)S(=O)(=O)c1cc(NC(=O)COC(=O)C2CC2)ccc1Cl", "Potency": "inconclusive: 89.1 µM [inhibitor, partial curve, poor fit]"},
      {"smiles": "CC(=O)N[C@@H](Cc1c[nH]c2ccccc12)C(=O)OCc1cc(C(F)(F)F)cc(C(F)(F)F)c1", "Potency": "inconclusive: 15.8 µM [inhibitor, partial curve]"},
      {"smiles": "CN(C)C(=O)CN1C(=O)NC(c2ccccc2)(c2ccccc2)C1=O", "Potency": "inactive"},
      {"smiles": "COc1ccc(-c2nc3nc(C)cc(Nc4ccc(C(C)=O)cc4)n3n2)cc1", "Potency": "inconclusive: 89.1 µM [inhibitor, single point]"},
      {"smiles": "Cc1nc2nc(C)c(NS(=O)(=O)c3cccs3)c(=O)n2[nH]1", "Potency": "inconclusive: 79.4 µM [inhibitor, single point]"},
      {"smiles": "Cc1ccc(C(=O)NCCc2ccc(F)cc2)s1", "Potency": "inactive"},
      {"smiles": "Cc1cc(NC(=O)CS(=O)(=O)c2cn(Cc3ccccc3Cl)c3ccccc23)no1", "Potency": "inconclusive: 20 µM [inhibitor, partial curve, poor fit]"},
      {"smiles": "CCC(=O)Nc1ccc(Cl)c(NC(=S)NC(=O)c2ccco2)c1", "Potency": "inactive"},
      {"smiles": "COc1cccc(OCC(=O)Nc2ccncc2)c1", "Potency": "inconclusive: 89.1 µM [inhibitor, single point]"},
      {"smiles": "COc1ccc(C=NNC(=O)CCCCC(=O)NN=Cc2ccc(OC)cc2)cc1", "Potency": "inactive"},
      {"smiles": "CCCNC(=S)N1CCC(NC(=O)c2ccc(OC)cc2)CC1", "Potency": "inconclusive: 39.8 µM [inhibitor, single point]"},
      {"smiles": "O=C(CCn1c(=O)oc2ccccc21)NCc1ccc2c(c1)OCO2", "Potency": "inactive"},
      {"smiles": "O=C1CCCC2=C1C(c1ccco1)Nc1ccc(C(=O)c3ccccc3)cc1N2", "note": "(centres undefined)", "Potency": "inconclusive: 22.4 µM [inhibitor, full curve, poor fit]"},
      {"smiles": "CN(C(=O)c1cccc(NC(=O)Cc2cccc(NC(=O)C3CCN(C(=O)C4CCC4)CC3)c2)c1)C1CC1", "Potency": "inactive"},
      {"smiles": "COCc1ccc(C(=O)NC(C)c2cnn(-c3ccccc3C)c2C)o1", "note": "(centres undefined)", "Potency": "inconclusive: 89.1 µM [inhibitor, single point]"},
      {"smiles": "O=c1[nH]c(CSc2nnc(-c3ccccc3)n2-c2ccccc2)nc2ccccc12", "Potency": "inconclusive: 2.82 µM [inhibitor, partial curve, poor fit]"},
      {"smiles": "CCOc1ccc(C(=O)Nc2ccc(-c3nc4cc(CC)ccc4o3)cc2)cc1", "Potency": "active: 89.1 µM"},
      {"smiles": "O=C(Nc1nc(-c2ccco2)c(-c2ccco2)s1)c1ccc(F)cc1F", "Potency": "inconclusive: 8.91 µM [inhibitor, full curve, poor fit]"},
      {"smiles": "O=C(O)Cn1c2ccccc2c2n[nH]c(=S)nc21", "Potency": "inconclusive: 31.6 µM [inhibitor, full curve]"},
      {"smiles": "Cn1c2ccccc2c(=O)c2ccc(C#Cc3ccc(N)cc3)cc21", "Potency": "inconclusive: 11.2 µM [inhibitor, partial curve, poor fit]"},
      {"smiles": "COC1=C(Br)C(=O)c2ncccc2C1=O", "Potency": "active: 1.26 µM"},
      {"smiles": "CCOc1ccc(CCNC(=O)CCS(=O)(=O)c2ccc(C)cc2)cc1OCC", "Potency": "inconclusive: 79.4 µM [inhibitor, single point]"},
      {"smiles": "Cc1ccc2[nH]c(O)c(N=NC(=O)c3ccc(NS(=O)(=O)c4cccs4)cc3)c2c1", "Potency": "inconclusive: 15.8 µM [inhibitor, full curve, poor fit]"},
      {"smiles": "O=C1C=CC(=O)N1c1ccc2ccccc2c1", "Potency": "inactive"},
      {"smiles": "COC(=O)C1=C(C)N(CCCC(=O)O)C(=O)NC1c1ccc(C(F)(F)F)cc1", "note": "(centres undefined)", "Potency": "inactive"},
      {"smiles": "CCN(CC)c1ccc(NC(=O)Nc2cccc(C(C)=O)c2)cc1", "Potency": "inconclusive: 11.2 µM [inhibitor, single point]"},
      {"smiles": "O=C(O)c1ccc2cccc(Cl)c2c1O", "Potency": "inconclusive: 7.94 µM [inhibitor, full curve, poor fit]"},
      {"smiles": "O=C(NCc1ccccn1)c1c(-c2ccccc2)sc2ccccc12", "Potency": "inconclusive: 10 µM [inhibitor, partial curve, poor fit]"}
    ]}
  ]
}
